Assay results published in patent US20110020518A1, “TASTE MODIFYING PRODUCT” (priority 2008, published 2011).

Tests used:
kokumi/umami taste = experiment: Evaluation of alkylpyridines: taste panel of 8 trained panelists, samples in 0.3% aqueous NaCl; type: in vivo
Description: Alkylpyridines shown in the following table were prepared by firstly being diluted into propylene glycol solvent in order to provide a 10% solution of the alkylpyridine. Each solution was then diluted using a 0.3% aqueous solution of NaCl, heated if necessary to achieve better dissolution, to a concentration of between 10 ppm and 30 ppm of the alkylpyridine. The samples were then stored at ambient temperature.
A panel consisting of 8 trained panelists evaluated the samples for taste properties on a scale of 0 to 10 where 0 denoted no kokumi/umami effect and 10 denoted extremely strong kokumi/umami effect.

[1] = as disclosed in U.S. Pat. No. 5,298,486; cited from earlier work

| Structure (SMILES) | Description (taste) (kokumi/umami taste; 10 ppm in 0.3% aqueous NaCl) | further results |
| --- | --- | --- |
| CCCCCCCCCCCc1ccccn1 [Compound of ex. 4, 2-undecylpyridine] | Weak, fabric conditioner | – |
| CCCCCCCCc1ccccn1 [Compound of ex. 2, 2-octylpyridine] | Fruity, bit rotten, weak, fatty, waxy, | – |
| c1ccncc1 [Pyridine, reference compound] | – | Description (taste) (kokumi/umami taste; 30 ppm in 0.3% aqueous NaCl): Sweet, plastic, chemical, slightly amine, |
| CCCCCc1cc(C)ccn1 [Compound of ex. 6, 4-methyl-2-pentylpyridine] | Fruity, woody, strong | – |
| CCCCCCCCCc1ccccn1 [Compound of ex. 3, 2-nonylpyridine] | Waxy, fatty, slightly fruity, slightly | – |
| CCCCCCCCCCCCc1ccccn1 [Compound of ex. 5, 2-dodecylpyridine] | Slightly floral, very weak | – |
| CCCc1ccccn1 [2-Propylpyridine, reference compound] | Plastic, slightly fruity, green, vegetal, | – |
| CCCCCCc1cccnc1 [3-hexylpyridine] | – | organoleptic description [1]: fruity |
| CCCCCCCc1ccccn1 [Compound of ex. 1, 2-heptylpyridine] | Fruity, woody, blackcurrant, green, | – |
| CCc1ccccn1 [2-Ethylpyridine, reference compound] | Plastic, slightly amine, green, rubbery, | – |
| CCCCCCCc1cccnc1 [3-heptylpyridine] | – | organoleptic description [1]: fatty, metallic and fishy |
| CCCCCCc1ccccn1 [2-Hexylpyridine] | Fruity, fatty, oily, green, bell pepper | – |
| Cc1ccccn1 [2-picoline, reference compound] | – | Description (taste) (kokumi/umami taste; 20 ppm in 0.3% aqueous NaCl): Chemical, hot plastic, polystyrene, |
